The target of this test is EZH2 (human (endogenous in LN229)) (UniProt Q15910). The experiment in a line: co-IP; LN229 cell lysate (lysis buffer with protease inhibitor cocktail) incubated with anti-CBX2 antibody, anti-EZH2 antibody or normal rabbit IgG overnight at 4°C; protein A/G magnetic beads for 1 h at room temperature; washed with lysis buffer; analysed by Western blot.

Sequences of proteins named here, by UniProt entry; tags and fusion partners are left off.
UniProt Q15910: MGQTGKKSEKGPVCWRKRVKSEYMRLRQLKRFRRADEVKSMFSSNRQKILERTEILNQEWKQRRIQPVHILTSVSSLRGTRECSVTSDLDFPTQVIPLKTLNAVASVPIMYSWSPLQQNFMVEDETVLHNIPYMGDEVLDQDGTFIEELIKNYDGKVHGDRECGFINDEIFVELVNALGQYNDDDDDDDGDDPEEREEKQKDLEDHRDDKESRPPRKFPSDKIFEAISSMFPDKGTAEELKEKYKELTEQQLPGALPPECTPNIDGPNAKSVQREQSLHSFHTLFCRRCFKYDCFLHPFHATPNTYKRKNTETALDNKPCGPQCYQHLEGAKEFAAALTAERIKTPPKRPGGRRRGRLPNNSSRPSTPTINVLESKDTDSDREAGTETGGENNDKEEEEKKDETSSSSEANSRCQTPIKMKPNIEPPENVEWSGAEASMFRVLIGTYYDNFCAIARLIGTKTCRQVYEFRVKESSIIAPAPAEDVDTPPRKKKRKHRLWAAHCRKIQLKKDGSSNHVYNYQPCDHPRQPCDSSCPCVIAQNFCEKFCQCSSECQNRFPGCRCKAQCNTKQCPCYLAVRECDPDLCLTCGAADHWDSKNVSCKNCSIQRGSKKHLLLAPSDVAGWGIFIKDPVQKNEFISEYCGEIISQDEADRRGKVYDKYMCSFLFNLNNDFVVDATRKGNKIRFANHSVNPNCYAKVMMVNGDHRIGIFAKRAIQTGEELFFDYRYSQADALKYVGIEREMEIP
UniProt Q14781: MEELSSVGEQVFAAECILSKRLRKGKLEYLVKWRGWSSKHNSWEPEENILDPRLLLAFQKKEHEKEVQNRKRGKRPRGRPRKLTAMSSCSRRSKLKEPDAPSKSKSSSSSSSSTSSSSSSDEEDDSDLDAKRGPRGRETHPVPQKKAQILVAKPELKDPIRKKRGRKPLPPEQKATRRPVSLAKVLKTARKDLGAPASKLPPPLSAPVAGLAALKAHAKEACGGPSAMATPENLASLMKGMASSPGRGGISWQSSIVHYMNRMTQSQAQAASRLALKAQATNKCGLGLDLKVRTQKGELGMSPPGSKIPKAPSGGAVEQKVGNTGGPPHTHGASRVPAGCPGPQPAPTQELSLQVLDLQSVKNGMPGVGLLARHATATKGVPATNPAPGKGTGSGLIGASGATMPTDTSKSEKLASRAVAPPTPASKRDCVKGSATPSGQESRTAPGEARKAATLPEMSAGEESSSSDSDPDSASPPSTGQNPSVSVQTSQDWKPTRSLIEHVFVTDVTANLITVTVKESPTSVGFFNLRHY

These are yes or no findings as the source states them, for the method shown. In cells and extracts the contact can be indirect. Some binding calls cover weakened binding; strength is not graded here.

In the case of “Chromobox (CBX) 2 (from UniProt Q14781 1-532)”, the binding entry is reported as “binds”.

Values taken from publication PMC11303140.
